Measurements as given in patent US20230090311A1 (THE UNIVERSITY OF QUEENSLAND, priority 2020, published 2023).
End groups of sequences in plain letters are not given here.

Legend:
[1] = Fmoc solid-phase peptide synthesis; rink amide MBHA; HATU/DIPEA; conditions: whole synthesis, scale 0.1 mmol
[2] = solid-phase peptide synthesis; conditions: whole synthesis, scale of the general procedure 0.1 mmol, 0.2 mmol; for final HPLC purity: analytical RP-HPLC, detection at 214 nm

In the case of 559FLPFQQFGRDIADT572, the isolated yield [1] is reported as 80% and the “final HPLC purity” value [2] is reported as no less than 99%.
With 623AIHADQLTPTWRVYSTG639 the isolated yield [1] was 75% and the “final HPLC purity” value [2] was no less than 99%.
In the case of AKFVAAWTLKAAAEVLTRRQSQDPKYVTQRIS, the “final HPLC purity” value [2] is reported as 99% and the isolated yield [2] is reported as 16%.
In the case of “AKFVAAWTLKAAAQAEDKVKQSREAKKQVEKALKQLEDKVQ”, the “final HPLC purity” value [2] is reported as 99% and the isolated yield [2] is reported as 18%.
For “Ac-(Phe-Leu-Ala)5-PADRE-J8 (FLAFLAFLAFLAFLAAKFVAAWTLKAAAQAEDKVKQSREAKKQVEKALKQLEDKVQ; N-terminal acetyl; Immunogenic agent incorporating phenylalanine- leucine-alanine repeat hydrophobic peptide, PADRE and J8.)”, the “final HPLC purity” value ([2]; run 1) was 97%, the “final HPLC purity” value ([2]; run 2) was 98% and the “final HPLC purity” value ([2]; run 3) was no less than 99%. The isolated yield ([2]; run 1) was 19%, the isolated yield ([2]; run 2) was 15% and the isolated yield ([2]; run 3) was 34%.
In the case of “Ac-(Ser)15-PADRE-J8 (SSSSSSSSSSSSSSSAKFVAAWTLKAAAQAEDKVKQSREAKKQVEKALKQLEDKVQ; N-terminal acetyl; Immunogenic agent incorporating polyserine hydrophobic peptide, PADRE and J8.)”, the “final HPLC purity” value [2] is reported as 96%, the isolated yield ([2]; run 1) is reported as 16% and the isolated yield ([2]; run 2) is reported as 15%.
For DNGKAIYERARERALQELGP, the “final HPLC purity” value [2] was 99% and the isolated yield [2] was 16%.
With EVLTRRQSQDPKYVTQRIS the “final HPLC purity” value [2] was 99% and the isolated yield [2] was 16%.
With LLLLLLLLLLAKFVAAWTLKAAA the “final HPLC purity” value [2] was no less than 99% and the isolated yield [2] was 45%.
For “LLLLLLLLLLAKFVAAWTLKAAAEVLTRRQSQDPKYVTQRIS”, the “final HPLC purity” value [2] was 99%.
For LLLLLLLLLLQAEPDRAHYNIVTF, the “final HPLC purity” value ([1]; analytical RP-HPLC, detection at 214 nm) was greater than 95% and the isolated yield [1] was 32%.
With QAEDKVKQSREAKKQVEKALKQLEDKVQ the isolated yield [2] was 20%.
